For two molecules, binding results are on record in paper PMC10449828, “Fanconi anemia associated protein 20 (FAAP20) plays an essential role in homology-directed repair of DNA double-strand breaks”.

Amino acid sequences for entries named in this document (tags omitted).
UniProt Q06609: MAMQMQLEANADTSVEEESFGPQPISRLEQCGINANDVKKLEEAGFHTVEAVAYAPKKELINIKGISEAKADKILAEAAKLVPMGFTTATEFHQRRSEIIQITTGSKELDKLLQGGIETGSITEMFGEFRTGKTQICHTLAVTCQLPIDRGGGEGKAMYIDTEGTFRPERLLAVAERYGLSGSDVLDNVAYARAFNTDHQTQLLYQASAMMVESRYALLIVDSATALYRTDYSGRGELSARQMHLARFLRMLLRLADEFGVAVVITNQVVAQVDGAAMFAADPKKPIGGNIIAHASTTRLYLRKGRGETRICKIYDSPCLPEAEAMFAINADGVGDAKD
UniProt Q12888: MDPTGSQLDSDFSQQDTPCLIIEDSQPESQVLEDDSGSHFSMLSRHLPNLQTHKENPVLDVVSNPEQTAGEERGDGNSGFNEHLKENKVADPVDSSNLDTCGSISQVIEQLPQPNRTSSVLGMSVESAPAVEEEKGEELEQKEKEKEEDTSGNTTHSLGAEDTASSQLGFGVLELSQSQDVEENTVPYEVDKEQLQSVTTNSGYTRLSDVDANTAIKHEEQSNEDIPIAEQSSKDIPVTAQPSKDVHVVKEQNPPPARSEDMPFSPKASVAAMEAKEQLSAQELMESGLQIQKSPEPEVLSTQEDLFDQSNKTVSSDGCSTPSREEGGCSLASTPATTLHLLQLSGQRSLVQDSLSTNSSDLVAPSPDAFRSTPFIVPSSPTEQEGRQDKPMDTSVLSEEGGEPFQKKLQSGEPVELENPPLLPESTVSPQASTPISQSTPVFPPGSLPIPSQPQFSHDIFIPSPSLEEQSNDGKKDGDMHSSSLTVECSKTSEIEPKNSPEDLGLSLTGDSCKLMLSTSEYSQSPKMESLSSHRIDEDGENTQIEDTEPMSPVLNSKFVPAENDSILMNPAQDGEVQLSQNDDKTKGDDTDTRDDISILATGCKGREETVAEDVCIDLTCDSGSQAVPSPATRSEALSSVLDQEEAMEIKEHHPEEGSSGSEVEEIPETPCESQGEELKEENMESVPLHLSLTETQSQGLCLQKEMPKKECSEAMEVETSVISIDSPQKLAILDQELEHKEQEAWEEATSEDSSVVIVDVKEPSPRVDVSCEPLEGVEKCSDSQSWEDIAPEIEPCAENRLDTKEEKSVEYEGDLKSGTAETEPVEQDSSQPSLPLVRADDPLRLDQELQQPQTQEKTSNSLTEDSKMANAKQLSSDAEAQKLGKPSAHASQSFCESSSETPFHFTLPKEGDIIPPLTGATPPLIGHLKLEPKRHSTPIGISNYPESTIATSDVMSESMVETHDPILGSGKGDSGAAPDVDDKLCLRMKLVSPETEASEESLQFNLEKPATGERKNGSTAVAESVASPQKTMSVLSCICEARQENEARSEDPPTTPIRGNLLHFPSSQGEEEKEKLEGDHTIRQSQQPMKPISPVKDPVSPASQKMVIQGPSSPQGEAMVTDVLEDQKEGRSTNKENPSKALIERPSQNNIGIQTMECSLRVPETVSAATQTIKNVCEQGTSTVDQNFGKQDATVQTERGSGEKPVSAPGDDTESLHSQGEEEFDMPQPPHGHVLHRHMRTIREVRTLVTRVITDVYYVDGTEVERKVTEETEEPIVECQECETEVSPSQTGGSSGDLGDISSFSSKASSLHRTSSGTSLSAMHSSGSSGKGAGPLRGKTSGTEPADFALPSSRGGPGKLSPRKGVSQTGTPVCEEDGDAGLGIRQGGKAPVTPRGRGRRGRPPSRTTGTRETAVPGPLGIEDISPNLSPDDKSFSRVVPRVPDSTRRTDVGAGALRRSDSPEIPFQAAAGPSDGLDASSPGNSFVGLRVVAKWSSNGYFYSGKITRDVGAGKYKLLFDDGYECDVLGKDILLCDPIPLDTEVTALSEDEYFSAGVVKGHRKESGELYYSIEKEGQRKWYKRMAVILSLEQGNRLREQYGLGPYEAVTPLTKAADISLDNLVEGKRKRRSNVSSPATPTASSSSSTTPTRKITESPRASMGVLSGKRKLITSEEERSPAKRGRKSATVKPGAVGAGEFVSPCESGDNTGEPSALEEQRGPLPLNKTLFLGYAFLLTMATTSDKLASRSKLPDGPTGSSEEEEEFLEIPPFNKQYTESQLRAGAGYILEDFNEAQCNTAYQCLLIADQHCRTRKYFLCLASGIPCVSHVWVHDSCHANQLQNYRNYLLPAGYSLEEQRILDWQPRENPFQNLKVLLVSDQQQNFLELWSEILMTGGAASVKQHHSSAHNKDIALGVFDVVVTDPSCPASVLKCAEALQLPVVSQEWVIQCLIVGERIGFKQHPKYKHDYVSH

These are yes or no findings as the source states them, for the method shown. In cells and extracts the contact can be indirect. Some binding calls cover weakened binding; strength is not graded here.

The assay addresses RAD51 (human (endogenous in HEK293t)) (UniProt Q06609). Kind of assay: co-IP; anti-RAD51 IgG (rabbit IgG isotype control) on HEK293t whole-cell extracts 48 h after FAAP20 overexpression, 500 ug protein/sample, extracts treated with micrococcal nuclease 1 h, antibody overnight at 4 C, Protein A magnetic beads, Western blot. For orientation: Immunoblotting shows a protein as a band on a membrane.

Consider 53BP1 (from UniProt Q12888 1-1972), for which the binding entry is listed as “no binding”.

B1: Fanconi anemia associated protein 20 (FAAP20) (protein, UniProt Q6NZ36 1-180)
chain: MEAARRPRLGLSRRRPRPAGGPSGGRPWFLLGGDERERLWAELLRTVSPELILDHEVPSLPAFPGQEPRCGPEPTEVFTVGPKTFSWTPFPPDLWGPGRSYRLLHGAGGHLESPARSLPQRPAPDPCRAPRVEQQPSVEGAAALRSCPMCQKEFAPRLTQLDVDSHLAQCLAESTEDVTW
B1: the binding entry is “binds”.
